Patent US12036228B2, “Treatment of seizure disorders” (Shackelford Pharma Inc., priority 2022, dated 2024)

System: male CD-1 mice, 6 Hz (22 mA) corneal stimulus psychomotor seizure
Test: Mouse 6 Hz seizure (22 mA) test
Format: in vivo
Details: 0.08×0.02 mg/kg
Description: This study assessed the anti-epileptic effects of low doses of dronabinol in the mouse 6 Hz seizure (22 mA) test at 4 dose levels. Sixty male CD-1 mice were randomly allocated to 1 of 7 treatment groups outlined in Table 1 below. The mice were purchased from Charles River Laboratories (St. Constant, Quebec, Canada). On the day of the experiment, general health observations and body weight measurements were performed prior to dosing. Thirty (30) minutes after administration of assigned treatments in Table 1, animals underwent a neurological assessment followed immediately by 6 Hz testing. Descriptions of these procedures are provided below.
Dronabinol and sodium valproate were dissolved in their respective vehicles on the day of dosing. Treatments were intraperitoneally administered to the lower right quadrant of the abdomen according to standard operating procedures. Treatment group summaries are included in Table 1.
On the scheduled test day, subjects received a dose of their assigned treatment 30 minutes before the electrical stimulus. Following neurological assessments, animals then received an electrical stimulus (6 Hz, 0.2 millisecond pulse width, 3 second duration, 22 mA) via corneal electrodes moistened with saline (ECT unit 57800; Ugo Basile). […]

With `CCCCCc1cc(O)c2c(c1)OC(C)(C)[C@@H]1CCC(C)=C[C@@H]21` [Dronabinol] the “minimum dose where a reduction of seizure severity score may be observed in humans” value was 1.6 µg/kg and the “minimum dose where a reduction of seizure severity score may be observed in humans, daily for a 70 kg human” value (70 kg human) was 0.112 mg daily.
